Assay results from PubChem BioAssay AID330 (DTP/NCI, 2004).
The list does not hold the whole screen: it is rich in T/C values a quarter to a half above the control, in often repeated tests (any T/C) and in doses without a T/C. Further doses and runs are listed elsewhere. T/C: endpoint of the treated group in % of that of the vehicle group. Some doses have a count of surviving animals in place of a T/C: the source files T/C as zero there, which appears to mark a toxic dose or a test without result, not a measured value. Some doses without a T/C left all or most animals alive at the check, yet need not have been tolerated: survival well below the control is almost never listed, so the zero probably covers shortened survival too. Survivors were counted at the toxicity check, usually on the fifth day, unless a day is given; later deaths do not show. Schedules are NCI's codes, read here as Q, the interval in days (D) or hours (H), X, the number of doses. Some doses were run more than once; their values stand side by side, smallest first. For survival time, the PubChem record calls one and a half times the control and up active, and a quarter to a half above the control has no call in these data; cut-offs in other NCI protocols can differ. Some T/C values are followed by the survivors on the day toxicity was checked, most often the fifth; without a count, all were alive then.

Tested on: P388 leukemia ip, CD2F1 mice, survival T/C
Assay: NCI In Vivo Anticancer Drug Screen. Data for tumor model P388 Leukemia (intraperitoneal) in CD2F1 (CDF1) mice
Details: T/C endpoint: median survival time, higher T/C = longer survival
[1] = dose: 25.0 mg/kg/injection, schedule: Q01DX009 (ip), vehicle: Klucel (hydroxypropylcellulose) (HPC)
[2] = dose: 50.0 mg/kg/injection, schedule: Q01DX009 (ip), vehicle: Klucel (hydroxypropylcellulose) (HPC)
[3] = dose: 100.0 mg/kg/injection, schedule: Q01DX009 (ip), vehicle: Klucel (hydroxypropylcellulose) (HPC)
[4] = dose: 200.0 mg/kg/injection, schedule: Q01DX009 (ip), vehicle: Klucel (hydroxypropylcellulose) (HPC)
[5] = dose: 120.0 mg/kg/injection, schedule: Q01DX005 (ip), vehicle: saline with Tween-80
[6] = dose: 240.0 mg/kg/injection, schedule: Q01DX005 (ip), vehicle: saline with Tween-80
[7] = dose: 50.0 mg/kg/injection, schedule: Q01DX009 (ip), vehicle: saline with Tween-80
[8] = dose: 100.0 mg/kg/injection, schedule: Q01DX009 (ip), vehicle: saline with Tween-80
[9] = dose: 200.0 mg/kg/injection, schedule: Q01DX009 (ip), vehicle: saline with Tween-80
[10] = dose: 200.0 mg/kg/injection, schedule: Q01DX005 (ip), vehicle: saline with Tween-80
[11] = dose: 200.0 mg/kg/injection, schedule: Q01DX009 (ip), vehicle: saline
[12] = dose: 100.0 mg/kg/injection, schedule: Q04DX003 (ip), vehicle: saline with Tween-80
[13] = dose: 150.0 mg/kg/injection, schedule: Q04DX003 (ip), vehicle: saline with Tween-80
[14] = dose: 200.0 mg/kg/injection, schedule: Q04DX003 (ip), vehicle: saline with Tween-80
[15] = dose: 400.0 mg/kg/injection, schedule: Q04DX003 (ip), vehicle: saline with Tween-80
[16] = dose: 50.0 mg/kg/injection, schedule: Q01DX005 (ip), vehicle: saline with Tween-80

## COc1cc([C@@H]2c3cc4c(c(O)c3C[C@H]3COC(=O)[C@@H]32)OCO4)cc(OC)c1OC
dose: 0.5 mg/kg/injection, schedule: Q01DX009 (ip), vehicle: suspension in saline
  T/C: 129 % of control
dose: 1.0 mg/kg/injection, schedule: Q01DX009 (ip), vehicle: saline
  T/C: 126 % of control
dose: 1.0 mg/kg/injection, schedule: Q01DX009 (ip), vehicle: suspension in saline
  T/C: 142 % of control
dose: 2.0 mg/kg/injection, schedule: Q01DX009 (ip), vehicle: saline
  T/C: 146 % of control
dose: 2.0 mg/kg/injection, schedule: Q01DX009 (ip), vehicle: suspension in saline
  T/C: 148 % of control
dose: 4.0 mg/kg/injection, schedule: Q01DX009 (ip), vehicle: saline
  T/C: 146 % of control
dose: 4.0 mg/kg/injection, schedule: Q01DX009 (ip), vehicle: suspension in saline
  survivor count: 5 of 6

## CCOC(=O)Nc1cc(NC/C(=N/O)c2ccc(C(F)(F)F)cc2)c([N+](=O)[O-])c(N)n1
dose: 200.0 mg/kg/injection, schedule: Q01DX001 (ip), vehicle: saline with Tween-80
  survivor count: 6 of 6

## O=[N+]([O-])c1cccnc1S(=O)(=O)c1ccccn1
[1]
  survivor count: 0 of 6
[2]
  survivor count: 6 of 6
[3]
  survivor count: 0 of 6
[4]
  survivor count: 0 of 6

## Cc1nnc2c3nccnc3c(Cl)nn12
[5]
  survivor count: 4 of 6
[6]
  survivor count: 0 of 6

## OC1(C#Cc2ccccc2)c2ccccc2C(O)(C#Cc2ccccc2)c2c(C#Cc3ccccc3)cccc21 (stereo not drawn)
[7]
  survivor count: 6 of 6
[8]
  survivor count: 6 of 6

## Cc1cc2nc(CC(=O)c3cccc([N+](=O)[O-])c3)c(=O)[nH]c2cc1C
dose: 60.0 mg/kg/injection, schedule: Q01DX005 (ip), vehicle: saline with Tween-80
  survivor count: 6 of 6
[5]
  survivor count: 6 of 6
[6]
  survivor count: 2 of 6

## ClCc1nnc2n1-c1ccc(Cl)cc1SC2
[6]
  survivor count: 1 of 6

## [Cl][Pt+2][Cl].[NH-]c1cccc(C(F)(F)F)c1.[NH-]c1cccc(C(F)(F)F)c1
dose: 6.25 mg/kg/injection, schedule: Q01DX009 (ip), vehicle: Klucel (hydroxypropylcellulose) (HPC)
  T/C: 129 % of control
dose: 12.5 mg/kg/injection, schedule: Q01DX009 (ip), vehicle: Klucel (hydroxypropylcellulose) (HPC)
  T/C: 127 and 132 % of control
[1]
  T/C: 126 % of control
[2]
  survivor count: 2 of 6
[3]
  survivor count: 0 of 6

## CCCCCCCCCC(=O)c1ccc(O)c(O)c1O
dose: 400.0 mg/kg/injection, schedule: Q01DX009 (ip), vehicle: saline
  survivor count: 2 of 6
dose: 600.0 mg/kg/injection, schedule: Q01DX009 (ip), vehicle: saline
  survivor count: 0 of 6

## CN1CCC(=C2c3ccccc3Oc3ncccc32)CC1
[8]
  survivor count: 2 of 6
[9]
  survivor count: 0 of 6

## N#Cc1c(C(=O)NN)cc(-c2cccc3ccccc23)[nH]c1=O
[10]
  survivor count: 3 of 6

## CC1=Nc2ccc(C)cc2N=C(C)C1
[11]
  survivor count: 3 of 6

## COc1cc([C@@H]2c3cc4c(cc3[C@H](OC(=O)c3ccncc3)[C@H]3COC(=O)[C@H]23)OCO4)cc(OC)c1OC
dose: 50.0 mg/kg/injection, schedule: Q01DX005 (ip), vehicle: Klucel (hydroxypropylcellulose) (HPC)
  survivor count: 0 of 5
dose: 100.0 mg/kg/injection, schedule: Q01DX005 (ip), vehicle: Klucel (hydroxypropylcellulose) (HPC)
  survivor count: 0 of 5
dose: 200.0 mg/kg/injection, schedule: Q01DX005 (ip), vehicle: Klucel (hydroxypropylcellulose) (HPC)
  survivor count: 0 of 5

## NNc1ccccn1
dose: 50.0 mg/kg/injection, schedule: Q01DX009 (ip), vehicle: saline
  survivor count: 2 of 6
dose: 100.0 mg/kg/injection, schedule: Q01DX009 (ip), vehicle: saline
  survivor count: 0 of 6
[11]
  survivor count: 0 of 6

## CCN(CCP(c1ccccc1)c1ccccc1)CCP(c1ccccc1)c1ccccc1
dose: 3.0 mg/kg/injection, schedule: Q01DX009 (ip), vehicle: saline with Tween-80
  T/C: 136 % of control
dose: 6.0 mg/kg/injection, schedule: Q01DX009 (ip), vehicle: saline with Tween-80
  T/C: 140 % of control
dose: 12.0 mg/kg/injection, schedule: Q01DX009 (ip), vehicle: saline with Tween-80
  T/C: 136 % of control
dose: 12.5 mg/kg/injection, schedule: Q04DX003 (ip), vehicle: saline with Tween-80
  T/C: 127 % of control
dose: 25.0 mg/kg/injection, schedule: Q04DX003 (ip), vehicle: saline with Tween-80
  T/C: 130 % of control
dose: 50.0 mg/kg/injection, schedule: Q04DX003 (ip), vehicle: saline with Tween-80
  T/C: 140 % of control
dose: 66.0 mg/kg/injection, schedule: Q04DX003 (ip), vehicle: saline with Tween-80
  T/C: 125 % of control [5 of 6 alive]
[12]
  T/C: 130 % of control [5 of 6 alive]
[13]
  survivor count: 4 of 6
[14]
  survivor count: 4 of 6
[15]
  survivor count: 1 of 6

## CC1=NN(C(=O)c2ccc(Cl)cc2)C(=O)C1N=Nc1ccc(S(=O)(=O)Nc2ccccn2)cc1 (stereo not drawn)
[10]
  survivor count: 6 of 6

## CC(NNC(=S)N1CCCC1)c1ccccn1 (stereo not drawn)
[10]
  survivor count: 1 of 5

## Cc1c(-c2nc(N)nc(C3CC3)c2C)nc(N)nc1C1CC1
dose: 240.0 mg/kg/injection, schedule: Q01DX005 (ip), vehicle: saline
  survivor count: 3 of 6

## CC1CN(C(=S)NNC(C)c2cc3ccccc3cn2)CC(C)O1 (stereo not drawn)
[16]
  T/C: 141 and 147 % of control
dose: 100.0 mg/kg/injection, schedule: Q01DX005 (ip), vehicle: saline with Tween-80
  survivor count: 0 of 5 and 1 of 6
[10]
  survivor count: 0 of 6

## Cc1ccc(C(=O)Nc2ccncc2)cc1
[1]
  survivor count: 3 of 6
[2]
  survivor count: 0 of 6
[3]
  survivor count: 0 of 6
[4]
  survivor count: 0 of 6

## CN1CCN(CCCN2c3ccccc3Sc3ccc(C(F)(F)F)cc32)CC1
[8]
  survivor count: 3 of 6
[12]
  T/C: 127 % of control
[13]
  survivor count: 3 of 6
[14]
  survivor count: 1 of 6
[15]
  survivor count: 0 of 6

## Clc1ccc(N=Cc2c3ccccc3cc3ccccc23)c(Cl)c1
[7]
  survivor count: 6 of 6
[8]
  survivor count: 6 of 6
[9]
  survivor count: 5 of 6

## NCCNCCN1C(=O)c2cccc3cccc(c23)C1=O
dose: 400.0 mg/kg/injection, schedule: Q01DX001 (ip), vehicle: saline
  survivor count: 0 of 6

## COC(=O)CC(O)CCCCCCCCCCCCC(C)C (stereo not drawn)
dose: 70.0 mg/kg/injection, schedule: Q01DX005 (ip), vehicle: Klucel + Tween-80
  survivor count: 6 of 6

## COc1ccc2c(C)cc(N/N=C(\c3ccccc3)c3ccccn3)nc2c1
dose: 12.5 mg/kg/injection, schedule: Q01DX005 (ip), vehicle: saline with Tween-80
  survivor count: 6 of 6
dose: 25.0 mg/kg/injection, schedule: Q01DX005 (ip), vehicle: saline with Tween-80
  survivor count: 6 of 6
[16]
  survivor count: 6 of 6

## O=C(C=C(C(F)(F)F)C(F)(F)F)c1ccccc1[N+](=O)[O-]
dose: 12.5 mg/kg/injection, schedule: Q04DX003 (ip), vehicle: other
  survivor count: 6 of 6

## CCCCCCC(Nc1ncnc(Cl)c1N)C(C)O (stereo not drawn)
[7]
  survivor count: 0 of 6
